In PMC8384837:
Changes are numbered by the printed parent chain. The list shows a part of the results. For part of these data: At the low end of the ranking the order means little. For part of these data: The source does not settle which construct or isoform was used.

Legend:
Settings in all cases: yeast three-hybrid, YBZ-1, SC-Leu-His + 0.5 mM 3-AT, 4 days
[1] = molecular target: T1, PUM1 PUF domain R1-QFR R2-VFQ R7-NPG S863Q + R864F + Q867R + N899V + Y900F + S1079N + N1080P + E1083G (UniProt Q14671)
T1 sequence: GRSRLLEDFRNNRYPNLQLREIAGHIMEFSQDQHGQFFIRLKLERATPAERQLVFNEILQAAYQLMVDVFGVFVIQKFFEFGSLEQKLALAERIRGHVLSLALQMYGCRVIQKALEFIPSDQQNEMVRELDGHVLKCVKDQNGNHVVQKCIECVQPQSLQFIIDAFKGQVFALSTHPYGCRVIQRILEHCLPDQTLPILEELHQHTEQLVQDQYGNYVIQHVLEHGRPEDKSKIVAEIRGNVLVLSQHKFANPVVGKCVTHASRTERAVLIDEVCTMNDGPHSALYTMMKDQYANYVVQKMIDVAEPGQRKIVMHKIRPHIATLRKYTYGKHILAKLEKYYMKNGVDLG

[2] = molecular target: T2, PUM1 PUF domain R3-THE R4-TFR C935T + R936H + Q939E + N971T + H972F + Q975R (UniProt Q14671)
T2 sequence: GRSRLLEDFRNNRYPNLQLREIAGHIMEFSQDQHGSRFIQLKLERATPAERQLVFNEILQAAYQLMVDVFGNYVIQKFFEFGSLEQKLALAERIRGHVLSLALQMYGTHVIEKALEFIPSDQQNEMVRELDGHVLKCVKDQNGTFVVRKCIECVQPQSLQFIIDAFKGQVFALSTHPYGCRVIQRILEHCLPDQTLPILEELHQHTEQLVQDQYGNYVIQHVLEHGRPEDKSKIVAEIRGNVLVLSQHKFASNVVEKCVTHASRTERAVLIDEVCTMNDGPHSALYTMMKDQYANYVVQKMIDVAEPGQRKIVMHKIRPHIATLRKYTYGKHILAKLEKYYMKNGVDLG

[3] = molecular target: T3, PUM1 PUF domain R5-PHQ R6-SWD C1007P + R1008H + N1043S + Y1044W + Q1047D (UniProt Q14671)
T3 sequence: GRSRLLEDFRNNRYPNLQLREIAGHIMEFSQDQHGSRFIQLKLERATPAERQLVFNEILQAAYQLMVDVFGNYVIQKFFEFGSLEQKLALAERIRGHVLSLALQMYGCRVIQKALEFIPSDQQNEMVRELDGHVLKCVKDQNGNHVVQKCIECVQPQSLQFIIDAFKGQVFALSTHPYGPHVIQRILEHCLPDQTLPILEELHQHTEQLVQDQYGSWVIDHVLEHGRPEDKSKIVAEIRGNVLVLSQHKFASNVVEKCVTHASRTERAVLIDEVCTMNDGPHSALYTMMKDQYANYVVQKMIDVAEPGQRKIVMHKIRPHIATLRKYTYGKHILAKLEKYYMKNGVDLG

[4] = molecular target: T4, PUM1 PUF domain R6-SWD R7-NPG N1043S + Y1044W + Q1047D + S1079N + N1080P + E1083G (UniProt Q14671)
T4 sequence: T3 sequence with P180C, H181R, S252N, N253P, E256G

[5] = molecular target: T5, PUM1 PUF domain R6-SWD R7-NPG N1043S + Y1044W + Q1047D + S1079N + N1080P + E1083G (Homo sapiens) (UniProt Q14671)
T5 sequence: T3 sequence with P180C, H181R, S252N, N253P, E256G

[6] = molecular target: T6, PUM1 PUF domain R3-THE R4-TFR R7-NPG C935T + R936H + Q939E + N971T + H972F + Q975R + S1079N + N1080P + E1083G (Homo sapiens) (UniProt Q14671)
T6 sequence: T2 sequence with S252N, N253P, E256G

Sequence	binding signal (log2 enrichment (interaction score)) [1]	binding signal (log2 enrichment (interaction score)) [2]	binding signal (log2 enrichment (interaction score)) [3]	binding signal (log2 enrichment (interaction score)) [4]	binding signal (log2 enrichment (interaction score)) [5]	binding signal (log2 enrichment (interaction score)) [6]
GGCUAGAACUAGUGGAUCCCCCGGCGCCCGGCGGCUCGAGCCCGGGUAAGUGGAAUAAGUCUGCAUGCCGCCGGGCGCCAUGCCUGCAGGUCGACUCUAGAAAACAUG	-5.9	< -5.87	-4.95			
GGCUAGAACUAGUGGAUCCCCCGGCGCCCGGCGGCUCGAGCCCGGGUAAGUCUAAGUCGUCUGCAUGCCGCCGGGCGCCAUGCCUGCAGGUCGACUCUAGAAAACAUG	-5.66	< -6.27	-8.31			
GGCUAGAACUAGUGGAUCCCCCGGCGCCCGGCGGCUCGAGCCCGGGUAAGUGUAUGAAGUCUGCAUGCCGCCGGGCGCCAUGCCUGCAGGUCGACUCUAGAAAACAUG	-6.28	-5.72	< -8.02	-2.08		
GGCUAGAACUAGUGGAUCCCCCGGCGCCCGGCGGCUCGAGCCCGGGUAAGAUGUAGUAGUCUGCAUGCCGCCGGGCGCCAUGCCUGCAGGUCGACUCUAGAAAACAUG	-5.81	< -6.85	-7.18			
GGCUAGAACUAGUGGAUCCCCCGGCGCCCGGCGGCUCGAGCCCGGGUAAGUAUAAAAAGUCUGCAUGCCGCCGGGCGCCAUGCCUGCAGGUCGACUCUAGAAAACAUG	-5.04	< -6.61	< -7.84			
GGCUAGAACUAGUGGAUCCCCCGGCGCCCGGCGGCUCGAGCCCGGGUAAGUGUACCAAGUCUGCAUGCCGCCGGGCGCCAUGCCUGCAGGUCGACUCUAGAAAACAUG	-6.37	-6.61	< -7.14		-1.72	
GGCUAGAACUAGUGGAUCCCCCGGCGCCCGGCGGCUCGAGCCCGGGUAAGUCUAAAAAGUCUGCAUGCCGCCGGGCGCCAUGCCUGCAGGUCGACUCUAGAAAACAUG	-5.52	-6.8	-9.26			
GGCUAGAACUAGUGGAUCCCCCGGCGCCCGGCGGCUCGAGCCCGGGUAAGAGGAAGUAGUCUGCAUGCCGCCGGGCGCCAUGCCUGCAGGUCGACUCUAGAAAACAUG	-4.37	< -6.89	-7.77	< -2.96		
GGCUAGAACUAGUGGAUCCCCCGGCGCCCGGCGGCUCGAGCCCGGGUAAGUAGAAAUCGUCUGCAUGCCGCCGGGCGCCAUGCCUGCAGGUCGACUCUAGAAAACAUG	-5.78	-6.72	-6.83		-0.93	
GGCUAGAACUAGUGGAUCCCCCGGCGCCCGGCGGCUCGAGCCCGGGUAAGUGUACAUCGUCUGCAUGCCGCCGGGCGCCAUGCCUGCAGGUCGACUCUAGAAAACAUG	-5.66	-7.65	-8.63		-0.94	
GGCUAGAACUAGUGGAUCCCCCGGCGCCCGGCGGCUCGAGCCCGGGUAAGUGUACAUUGUCUGCAUGCCGCCGGGCGCCAUGCCUGCAGGUCGACUCUAGAAAACAUG	-6.94	-6.31	-8.4			
GGCUAGAACUAGUGGAUCCCCCGGCGCCCGGCGGCUCGAGCCCGGGUAAGUCUACGCAGUCUGCAUGCCGCCGGGCGCCAUGCCUGCAGGUCGACUCUAGAAAACAUG	< -5.88	-6.11			-0.61	
GGCUAGAACUAGUGGAUCCCCCGGCGCCCGGCGGCUCGAGCCCGGGUAAGUGCAAGAUGUCUGCAUGCCGCCGGGCGCCAUGCCUGCAGGUCGACUCUAGAAAACAUG	-5.68	-6.69	-8.54			
GGCUAGAACUAGUGGAUCCCCCGGCGCCCGGCGGCUCGAGCCCGGGUAAGUUAACGUAGUCUGCAUGCCGCCGGGCGCCAUGCCUGCAGGUCGACUCUAGAAAACAUG	-5.37	-7.38	< -8.34		-1.33	
GGCUAGAACUAGUGGAUCCCCCGGCGCCCGGCGGCUCGAGCCCGGGUAAGUCGAGAUAGUCUGCAUGCCGCCGGGCGCCAUGCCUGCAGGUCGACUCUAGAAAACAUG	-5.75	-6.77	-6.62		-0.57	
GGCUAGAACUAGUGGAUCCCCCGGCGCCCGGCGGCUCGAGCCCGGGUAAGUAGGAGUCGUCUGCAUGCCGCCGGGCGCCAUGCCUGCAGGUCGACUCUAGAAAACAUG	-5.63	< -7.21	-7.99			
GGCUAGAACUAGUGGAUCCCCCGGCGCCCGGCGGCUCGAGCCCGGGUAAGGAUAAAUAGUCUGCAUGCCGCCGGGCGCCAUGCCUGCAGGUCGACUCUAGAAAACAUG	-5.65	< -7.12	< -7.04			

Sequence	binding signal (log2 enrichment (interaction score)) [1]	binding signal (log2 enrichment (interaction score)) [2]	binding signal (log2 enrichment (interaction score)) [3]	binding signal (log2 enrichment (interaction score)) [4]	binding signal (log2 enrichment (interaction score)) [5]	binding signal (log2 enrichment (interaction score)) [6]
GGCUAGAACUAGUGGAUCCCCCGGCGCCCGGCGGCUCGAGCCCGGGUAAGGGGUAAUAGUCUGCAUGCCGCCGGGCGCCAUGCCUGCAGGUCGACUCUAGAAAACAUG	< -6.38	< -7.63	< -7.77			
GGCUAGAACUAGUGGAUCCCCCGGCGCCCGGCGGCUCGAGCCCGGGUAAGGUGAGGUAGUCUGCAUGCCGCCGGGCGCCAUGCCUGCAGGUCGACUCUAGAAAACAUG	-6.33	< -7.7	< -8.58			
GGCUAGAACUAGUGGAUCCCCCGGCGCCCGGCGGCUCGAGCCCGGGUAAGUGGAGAGCGUCUGCAUGCCGCCGGGCGCCAUGCCUGCAGGUCGACUCUAGAAAACAUG	< -6.53	-5.85	-7.98			
GGCUAGAACUAGUGGAUCCCCCGGCGCCCGGCGGCUCGAGCCCGGGUAAGUGCAAGUAGUCUGCAUGCCGCCGGGCGCCAUGCCUGCAGGUCGACUCUAGAAAACAUG	-6.5	-6.43	-7.29			
GGCUAGAACUAGUGGAUCCCCCGGCGCCCGGCGGCUCGAGCCCGGGUAAGUUGACCAAGUCUGCAUGCCGCCGGGCGCCAUGCCUGCAGGUCGACUCUAGAAAACAUG	-6.17	< -6.86			-0.82	
GGCUAGAACUAGUGGAUCCCCCGGCGCCCGGCGGCUCGAGCCCGGGUAAGUCGACGAAGUCUGCAUGCCGCCGGGCGCCAUGCCUGCAGGUCGACUCUAGAAAACAUG	-4.37	-7.78	< -8.39			
GGCUAGAACUAGUGGAUCCCCCGGCGCCCGGCGGCUCGAGCCCGGGUAAGGGAACAUAGUCUGCAUGCCGCCGGGCGCCAUGCCUGCAGGUCGACUCUAGAAAACAUG	-3.89	< -5.89	-6.7			
GGCUAGAACUAGUGGAUCCCCCGGCGCCCGGCGGCUCGAGCCCGGGUAAGAGUAAGUCGUCUGCAUGCCGCCGGGCGCCAUGCCUGCAGGUCGACUCUAGAAAACAUG	-6.35	-6.77	-7.67			
GGCUAGAACUAGUGGAUCCCCCGGCGCCCGGCGGCUCGAGCCCGGGUAAGUUGACUCAGUCUGCAUGCCGCCGGGCGCCAUGCCUGCAGGUCGACUCUAGAAAACAUG	-3.79	-7.96	-7.45			
GGCUAGAACUAGUGGAUCCCCCGGCGCCCGGCGGCUCGAGCCCGGGUAAGCUUAAAUUGUCUGCAUGCCGCCGGGCGCCAUGCCUGCAGGUCGACUCUAGAAAACAUG	-6.7	-7.58	< -7.67			
GGCUAGAACUAGUGGAUCCCCCGGCGCCCGGCGGCUCGAGCCCGGGUAAGAUGAAGUCGUCUGCAUGCCGCCGGGCGCCAUGCCUGCAGGUCGACUCUAGAAAACAUG	< -5.79	-6.94	-8.09		-0.44	
GGCUAGAACUAGUGGAUCCCCCGGCGCCCGGCGGCUCGAGCCCGGGUAAGUAGAAGCAGUCUGCAUGCCGCCGGGCGCCAUGCCUGCAGGUCGACUCUAGAAAACAUG	-5.6	-7.24	< -7.85			
GGCUAGAACUAGUGGAUCCCCCGGCGCCCGGCGGCUCGAGCCCGGGUAAGUUAAAGUAGUCUGCAUGCCGCCGGGCGCCAUGCCUGCAGGUCGACUCUAGAAAACAUG	< -6.44	-7.27	-7.74			
GGCUAGAACUAGUGGAUCCCCCGGCGCCCGGCGGCUCGAGCCCGGGUAAGUGGAAGAAGUCUGCAUGCCGCCGGGCGCCAUGCCUGCAGGUCGACUCUAGAAAACAUG	-4.99	-6.33	< -8.3			
GGCUAGAACUAGUGGAUCCCCCGGCGCCCGGCGGCUCGAGCCCGGGUAAGCUGUAGUAGUCUGCAUGCCGCCGGGCGCCAUGCCUGCAGGUCGACUCUAGAAAACAUG	-5.63	-7.1	< -7.25		-1.28	
GGCUAGAACUAGUGGAUCCCCCGGCGCCCGGCGGCUCGAGCCCGGGUAAGCUGAAAUCGUCUGCAUGCCGCCGGGCGCCAUGCCUGCAGGUCGACUCUAGAAAACAUG	-5.18		-8.37			< -0.28
GGCUAGAACUAGUGGAUCCCCCGGCGCCCGGCGGCUCGAGCCCGGGUAAGACAGAAUGGUCUGCAUGCCGCCGGGCGCCAUGCCUGCAGGUCGACUCUAGAAAACAUG	-6.53		< -7.19			< -1.22

Some entries already given, reduced to binding signal (log2 enrichment (interaction score)) [2] and binding signal (log2 enrichment (interaction score)) [5].
Sequence,binding signal (log2 enrichment (interaction score)) [2],binding signal (log2 enrichment (interaction score)) [5]
GGCUAGAACUAGUGGAUCCCCCGGCGCCCGGCGGCUCGAGCCCGGGUAAGUUGACUCAGUCUGCAUGCCGCCGGGCGCCAUGCCUGCAGGUCGACUCUAGAAAACAUG,-7.96,
GGCUAGAACUAGUGGAUCCCCCGGCGCCCGGCGGCUCGAGCCCGGGUAAGCUUAAAUUGUCUGCAUGCCGCCGGGCGCCAUGCCUGCAGGUCGACUCUAGAAAACAUG,-7.58,
